Laboratory results taken from PubChem BioAssay AID1347075 (National Center for Advancing Translational Sciences (NCATS), 2019).
In all, about 400,000 compounds went through this assay and about 5,500 (1.4%) were called active. Inconclusive means that the source gave no clear call. Such entries were picked first, then a sample of the others. The call rests on the fitted dose curve; in most records, active means well fitted cell-killing curve with a large enough effect; inconclusive means small, poorly fitted or top-dose-only effect, or effect the other way; inactive means flat fitted curve, though single readings scatter. Potencies beside an inconclusive call are fits to weak or partial responses and may not hold up.

Assay: qHTS assay for MDR1-selective chemotherapeutics: Primary screen using the parental adenocarcinoma cell KB-3-1; further: nearly all actives have a fitted effect of over 60% in size
Conditions: KB-3-1 viability, CellTiter-Glo ATP luminescence, 72 h; activity change, negative = cytotoxic: at 46.1 µM (top of the series)
Outline: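 Luminescent ATP read-out (CellTiter-Glo) measures survival of drug-naive KB-3-1 cells after 72 h compound exposure at 37 °C. Titration series was screened from lowest to highest concentration, with DMSO vehicle plates as background controls.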
On the % scale 0 is the no-effect control and ±100 the full control effect; potency means the concentration at half of the fitted maximal effect.

Structure (SMILES) | Potency | activity change, negative = cytotoxic
O=c1c2ccccc2oc2cc(-c3ccc4[nH]ccc4c3)ccc12 | inconclusive: 2.06 µM [cytotoxic, full curve, poor fit] | –
CC1=NNC(=O)/C1=C\c1cn(-c2ccccc2)nc1-c1ccccc1 | inconclusive: 29.1 µM [cytotoxic, single point] | –
COc1cc(-c2cc(C(=O)Nc3cccc(C(C)=O)c3)c3ccccc3n2)cc(OC)c1OC | inconclusive: 18.4 µM [cytotoxic, single point] | –
Cc1cc(NC(=O)Nc2ccc(Cl)c(Cl)c2)n(-c2ccccc2)n1 | inconclusive: 23.1 µM [cytotoxic, single point] | –
CCC(Cc1ccccc1)NC(=O)c1oc(=O)c2ccccc2c1-c1ccccc1 (stereo unspecified) | inactive | –
CC12CCC(C(=O)NNc3ccccc3)(C(=O)C1=O)C2(C)C (stereo unspecified) | inactive | –
Cc1cc2c(cc1C)C(c1ccccc1F)CC(=O)N2 (stereo unspecified) | active: 5.8 µM | –
O=C(Nc1ccnc(-c2ccncc2)n1)C1CC1 | inconclusive: 20.6 µM [cytotoxic, partial curve, poor fit] | –
CCCSc1cc(N2CCN(C)CC2)nc(-c2ccc(OC)cc2)n1 | inconclusive: 29.1 µM [cytotoxic, single point] | –
Cc1cccc(C)c1OCCCCn1c(C2CC(=O)N(c3ccc(F)cc3)C2)nc2ccccc21 (stereo unspecified) | inactive | –
O=[N+]([O-])c1cccc(/C=N/N2CCN(c3ccccn3)CC2)c1 | inconclusive: 16.4 µM [cytotoxic, single point] | –
CC(=O)c1c(C)[nH]c(C(=O)OCC(=O)Nc2c(C)cccc2C)c1C | inconclusive: 20.6 µM [cytotoxic, single point] | –
O=C1CC(c2cc(F)ccc2F)c2cc3c(cc2N1)CCC3 (stereo unspecified) | active: 4.61 µM | –
CCCc1nnc(NC(=O)CCC(=O)N2CCN(Cc3ccccc3)CC2)s1 | inconclusive: 1.03 µM [rising, full curve] | –
O=C(Cc1cccs1)NCCSc1c(-c2ccc(Cl)cc2)[nH]c2ccccc12 | inconclusive: 20.6 µM [cytotoxic, single point] | –
Cn1c(-c2cccc(OCc3ccccc3)c2)nc2c1c(=O)[nH]c(=O)n2Cc1ccccc1 | active: 14.6 µM | –
COc1cc(N=Nc2ccc(Br)cc2)cc(C=O)c1O | inconclusive: 29.1 µM [cytotoxic, single point] | –
CCOc1ccc(-c2noc(-c3ccncc3)n2)cc1OCC | inactive | –
CCCCC[n+]1cccc2c3ccccc3ccc21 | inconclusive: 25.9 µM [cytotoxic, single point] | –
O=C1C=C(N2CCN(c3ccccn3)CC2)C(=O)c2c(O)ccc(O)c21 | inconclusive: 29.1 µM [cytotoxic, single point] | –
O=C(NCc1ccccc1)C1=C[C@H](c2csc3ccccc23)C[C@H](OCc2ccc(CO)cc2)O1 | inactive | –
O=Cc1cccc(OC(=O)Nc2ccccc2)c1 | inactive | –
CCCCN(Cc1ccccc1)S(=O)(=O)c1ccc2c(c1)CC(C)N2C(=O)CC (stereo unspecified) | inconclusive: 29.1 µM [cytotoxic, single point] | –
COC(=O)C[C@H]1c2cc(C(F)(F)F)ccc2S(=O)(=O)N1C1CCCC1 | inconclusive: 16.4 µM [cytotoxic, partial curve] | –

Record cards, as listed above. Order of values: Potency | activity change, negative = cytotoxic
`Cc1cccc(C)c1OCCCCn1c(C2CC(=O)N(c3ccc(F)cc3)C2)nc2ccccc21` (stereo unspecified) is listed with inactive | –
`CCCCN(Cc1ccccc1)S(=O)(=O)c1ccc2c(c1)CC(C)N2C(=O)CC` (stereo unspecified) is listed with inconclusive: 29.1 µM [cytotoxic, single point] | –
`CCCCC[n+]1cccc2c3ccccc3ccc21` is listed with inconclusive: 25.9 µM [cytotoxic, single point] | –

Further results:

Structure (SMILES) | Potency | activity change, negative = cytotoxic
O=c1[nH]nc(-c2ccc(NCCO)c([N+](=O)[O-])c2)c2ccccc12 | inactive | –
Cc1c(Br)c([N+](=O)[O-])nn1CC(=O)Nc1sc2c(c1C(=O)OC(C)C)CCC(C)C2 (stereo unspecified) | inconclusive: 16.4 µM [cytotoxic, single point] | –
CC1CN(CCCOc2ccc([N+](=O)[O-])cc2)CC(C)O1 (stereo unspecified) | inactive | –
Cc1ccc(-c2nc3ccccc3[nH]2)s1 | inconclusive: 20.6 µM [cytotoxic, single point] | –
CCCCSc1nnc(CNC(=O)C23CC4CC(CC(C4)C2)C3)n1Cc1ccccc1 | inconclusive: 29.1 µM [cytotoxic, single point] | –
Cc1ccc(C)c(Cn2nnc3c(=O)[nH]c(C4CCN(S(=O)(=O)c5ccc(S(=O)(=O)NC6CC6)cc5)CC4)nc32)c1 | inconclusive: 29.1 µM [cytotoxic, single point] | –
Cc1ccc(S(=O)(=O)NNC(=O)c2ccc(C(=O)N(c3ccccc3)c3ccccc3)cc2)cc1 | inactive | –
CN1CCN(c2ccc(Cl)cc2NC(=O)/C=C/c2ccc(F)cc2)CC1 | inactive | –
Cc1ccc(-c2nc(CS(=O)CC(=O)NCCCc3ccccc3)c(C)o2)cc1 (stereo unspecified) | inconclusive: 8.2 µM [cytotoxic, partial curve] | –
O=C(O)c1ccc(/C=C/C(=O)c2ccc3c(c2)OCCCO3)cc1 | inconclusive: 20.6 µM [cytotoxic, single point] | –
O=C(COc1ccc2ccccc2c1)NNC(=O)[C@@H]1CCCC[C@@H]1C(=O)O | inactive | –
Cc1ccccc1Cn1nc(C)c(NC(=O)c2sc3ccccc3c2Cl)c1C | inconclusive: 29.1 µM [cytotoxic, single point] | –
Cc1ccccc1N(C(=O)c1snc(C(N)=O)c1N)C(C(=O)NC1CCCCC1)c1ccc(O)cc1 (stereo unspecified) | inconclusive: 32.6 µM [cytotoxic, single point] | –
CCOCc1nc(N)nc(N)c1-c1cccc(Cl)c1 | inactive | –
COc1ccccc1NC1=NC2(CCCC2)N=C(N)N1 | inconclusive: 14.6 µM [cytotoxic, partial curve] | –
COC(=O)c1ccc2c(c1)C(C)(C)C(/C=C/c1ccc(OC)c(OC)c1OC)=[N+]2C | active: 5.17 µM | –
COc1ccc2[nH]cc(CCN=C(NC(=O)c3ccccc3F)Nc3nc(C)cc(C)n3)c2c1 | inconclusive: 20.6 µM [cytotoxic, single point] | –
C=CCn1c(SCC(=O)Nc2sccc2C(N)=O)nc2ccc(Cl)cc2c1=O | inconclusive: 20.6 µM [cytotoxic, single point] | –
Nc1cccc(S(=O)(=O)N2CCOCC2)c1 | inconclusive: 29.1 µM [rising, single point] | –
CCN(CC)CCCNc1nc2ccccc2c2[nH]c3ccc(OC)cc3c12 | inconclusive: 29.1 µM [cytotoxic, single point] | –
Cc1c(NC(=O)COC(=O)/C=C/c2ccc(Cl)cc2)c(=O)n(-c2ccccc2)n1C | inactive | –
Cn1c2ccccc2c2ncn(Cc3ccco3)c(=O)c21 | inactive | –
CCn1c2ccccc2c2cc(NC(=O)c3ccccc3[N+](=O)[O-])ccc21 | inconclusive: 29.1 µM [cytotoxic, single point] | –
COc1ccccc1OCc1ccc(C(=O)Nc2ccccc2)cc1 | inactive | –

Structure (SMILES) | Potency | activity change, negative = cytotoxic
CCOc1c2ccc(C(=O)NCc3ccco3)cc2nn1CCOC | inactive | –
Cn1c(NCCN2CCCC2)nc2cc(-c3ccsc3)sc2c1=O | inconclusive: 3.66 µM [cytotoxic, full curve] | –
CCCn1ncc(CN2CCC(C(=O)Nc3cccc(-c4cccc(F)c4)c3)CC2)c1C | inconclusive: 29.1 µM [cytotoxic, single point] | –
Cc1cccc(N2C(=O)C(Oc3ccc(Cl)cc3Cl)C2C=O)c1C (stereo unspecified) | inconclusive: 29.1 µM [cytotoxic, single point] | –
O=C(NCC(=O)N1CC=C(c2ccccc2)CC1)c1ccc(OC(F)F)cc1 | inconclusive: 20.6 µM [cytotoxic, single point] | –
Cn1cc(CN2CCC(n3nccc3NC(=O)CCOc3ccccc3)CC2)cn1 | inconclusive: 29.1 µM [rising, single point] | –
Nc1c(Cl)cnn(-c2ccccc2)c1=O | inactive | –
CC(C)CN1C(=O)CSCC1(C)C(=O)Nc1ccc2c(c1)OCCO2 (stereo unspecified) | inactive | –
COc1ccccc1NC(=O)CSc1ncc2c(n1)-c1ccccc1N(Cc1ccccc1C)S2(=O)=O | inconclusive: 18.4 µM [cytotoxic, single point] | –
COc1ccc(C(=O)OCC(=O)Nc2cccc(C(C)=O)c2)c(OC)c1OC | inconclusive: 29.1 µM [rising, single point] | –
Cc1c(Cl)cccc1NC(=O)NCc1cccnc1 | inactive | –
C=C1C=C(C(F)F)n2ncc(C(=O)Nc3ccc(N(CC)CC)cc3)c2N1 | – | inconclusive: 10.1%
COc1ccc(N=Cc2c(O)ccc3ccccc23)cc1 | inactive | –
Cc1c(C(=O)NCc2cccc(Cl)c2)sc(=O)n1Cc1ccc(C(=O)N(C)C)cc1 | inconclusive: 25.9 µM [cytotoxic, single point] | –
CC(=O)Nc1ccc(C2=NNC(=NCC3CCCO3)SC2)cc1 (stereo unspecified) | inconclusive: 0.517 µM [rising, full curve] | –
CCOC(=O)c1c(-c2ccccc2)csc1NC(=O)C(C)NCCCN1CCOCC1 (stereo unspecified) | inconclusive: 29.1 µM [cytotoxic, partial curve, poor fit] | –
NC(=O)c1c(NC(=O)c2ccncn2)sc2c1CCCC2 | inconclusive: 25.9 µM [rising, single point] | –
CCn1cnc2sc(-c3ccccc3)cc2c1=O | inconclusive: 32.6 µM [cytotoxic, single point] | –
CC1CCN(Cc2nc(Cl)c3c4c(sc3n2)CCC4)CC1 | inactive | –
NC(=O)C1Cc2ccccc2CN1S(=O)(=O)c1ccc(Cl)s1 (stereo unspecified) | inactive | –
CCc1nc2ccc(C(=O)N3CCN(c4ccc([N+](=O)[O-])cc4)CC3)cc2nc1CC | inconclusive: 29.1 µM [cytotoxic, single point] | –
CN1CCN(Cc2nc3ccccc3c(=O)n2Cc2nc(-c3ccc([N+](=O)[O-])cc3)cs2)CC1 | inconclusive: 18.4 µM [cytotoxic, single point] | –
CCOc1ccc(-n2c(SCC(=O)Nc3cc(C)ccc3C)nc3c([nH]c4ccccc43)c2=O)cc1 | inactive | –
